{
  "source": "PubChem BioAssay AID504648",
  "about": "(National Center for Advancing Translational Sciences (NCATS), 2011)",
  "note": "Hit rate of the full screen: of about 390,000 compounds, about 610 (0.16%) were called active. Inconclusive results, whose numbers are uncertain, are shown with a selection of clear calls. The call rests on the fitted dose curve; in most records, active means well fitted inhibition curve with a large enough effect; inconclusive means small, poorly fitted or top-dose-only effect, or effect the other way, or another doubt; inactive means no such curve, though single readings can be large or run the other way. Potencies of inconclusive entries are doubtful fits and often do not repeat. On the % scale 0 is the no-effect control and ±100 the full control effect; potency means the concentration at half of the fitted maximal effect.",
  "data": [
    {"experiment": "Nrf2 qHTS screen for inhibitors: counterscreen for cytotoxicity", "details": "A549 ARE-Fluc cells, CellTiter-Fluor viability, 18-24 h; activity change, negative = cytotoxicity: at 46 µM (top of the series)", "how_it_was_run": "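A549 ARE_Fluc cells in 5% FBS OPTI-MEM were exposed to compounds in concentration-response for 18-24 h at 37 deg C. Viability was read by CellTiter-Fluor fluorescence (Ex 405/Em 525) after 30 min, before the luciferase read.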", "values": [
      {"smiles": "Cc1ccc2nc(/C(C#N)=C/c3cn[nH]c3-c3ccc(F)cc3)[nH]c2c1", "Potency": "inconclusive: 29.1 µM [falling, single point]"},
      {"smiles": "CC(=O)Nc1ccc2nc(-c3ccncc3)[nH]c2c1", "activity change, negative = cytotoxicity": "inactive: -6.94%"},
      {"smiles": "CCOc1ccccc1-n1c(SCC(=O)N2CCOCC2)nc2ccccc2c1=O", "Potency": "inconclusive: 10.3 µM [falling, partial curve, poor fit]"},
      {"smiles": "CC1(C)c2ssc(=S)c2-c2ccccc2N1C(=O)CSC1=NCCS1", "activity change, negative = cytotoxicity": "inactive: -14.3%"},
      {"smiles": "Cc1noc(/C=C/c2cccnc2)c1[N+](=O)[O-]", "Potency": "inconclusive: 14.6 µM [falling, partial curve, poor fit]"},
      {"smiles": "Cc1ccc(NC(=O)Cc2ccc(Cl)cc2)cc1S(=O)(=O)N1CCCCCC1", "Potency": "inconclusive: 23.1 µM [falling, single point]"},
      {"smiles": "CCC(=O)Nc1sc2c(c1C#N)CCC2", "activity change, negative = cytotoxicity": "inactive: 3.24%"},
      {"smiles": "CCN1CCS/C1=C\\C=C\\C1=[N+](CC)CCS1", "Potency": "inconclusive: 20.6 µM [falling, single point]"},
      {"smiles": "COCCNc1nc(NCc2ccccc2OC)c2cnn(C)c2n1", "activity change, negative = cytotoxicity": "inactive: 5.92%"},
      {"smiles": "Cc1ccc(NC(=O)CN(C)C(=O)c2cc(-c3ccco3)nc3ccccc23)cc1", "activity change, negative = cytotoxicity": "inactive: -6.33%"},
      {"smiles": "CC1(C)C(O)=C(c2nc3ccccc3[nH]2)C(=N)N1c1ccccc1", "Potency": "inconclusive: 5.8 µM [falling, partial curve]"},
      {"smiles": "CCc1cc(=O)oc2c(CN3CCN(C)CC3)c(O)c(Cl)cc12", "Potency": "inconclusive: 23.1 µM [activator, single point]"},
      {"smiles": "O=[N+]([O-])c1ccc(COc2ccc(-c3[nH]ncc3-c3ccccc3)c(O)c2)cc1", "Potency": "inconclusive: 29.1 µM [falling, single point]"},
      {"smiles": "CC(=O)N1c2ccc(S(=O)(=O)N3CCC(C(=O)NCc4ccc(Cl)cc4)CC3)cc2CC1C", "note": "(stereo not drawn)", "activity change, negative = cytotoxicity": "inactive: 9.19%"},
      {"smiles": "O=C1C=C(N(CCO)Cc2ccccc2)c2ccccc2C1=O", "Potency": "active: 23.1 µM"},
      {"smiles": "CCC(NC(=O)CCl)c1ccc(C)cc1", "note": "(stereo not drawn)", "Potency": "inconclusive: 10.3 µM [falling, partial curve, poor fit]"},
      {"smiles": "Nc1c(C(=O)NC2CC2)sc2nc3c(c(-c4ccco4)c12)CC/C3=C/c1ccco1", "Potency": "inconclusive: 16.4 µM [falling, single point]"},
      {"smiles": "O=C1NC[C@@H](Cc2cccc3ccccc23)N(CC2CCCCC2)C1=O", "activity change, negative = cytotoxicity": "inactive: -8.35%"},
      {"smiles": "CN(Cc1ccccc1F)C(=O)c1ccc(NC(=O)CC2SC(N3CCCCC3)=NC2=O)cc1", "note": "(stereo not drawn)", "activity change, negative = cytotoxicity": "inactive: 7.14%"},
      {"smiles": "CN(CCC#N)c1ccc(/C=C(\\C#N)c2ccccn2)cc1", "Potency": "inconclusive: 23.1 µM [falling, partial curve]"},
      {"smiles": "O=C(Nc1ccc(Cl)c(Cl)c1)Nc1ccc(Br)cc1F", "Potency": "inconclusive: 29.1 µM [falling, single point]"},
      {"smiles": "Nc1nc(Br)c2c(F)cccc2c1-c1ccccc1", "Potency": "inconclusive: 25.9 µM [activator, partial curve, poor fit]"},
      {"smiles": "CCN(CCn1cccn1)C(=O)c1ccc2nc(Cc3ccc(OC)cc3)oc2c1", "activity change, negative = cytotoxicity": "inactive: 1.15%"},
      {"smiles": "CCOC(=O)c1c(NC(=O)/C=C/C(=O)O)sc(C)c1-c1ccc(F)cc1", "activity change, negative = cytotoxicity": "inactive: -5.4%"},
      {"smiles": "Cc1cccc(Nc2nnc(SCC(=O)NC3CCCc4ccccc43)s2)c1", "note": "(stereo not drawn)", "Potency": "inconclusive: 25.9 µM [falling, partial curve, poor fit]"},
      {"smiles": "CCCCCCOC(=O)C(C#N)c1nc2ccccc2nc1N1CCN(C)CC1", "note": "(stereo not drawn)", "Potency": "inconclusive: 29.1 µM [falling, single point]"},
      {"smiles": "COc1ccc(C(=O)CN2C(=O)N(c3ccc(C(C)=O)cc3)S(=O)(=O)c3ccccc32)cc1", "activity change, negative = cytotoxicity": "inactive: -2.23%"},
      {"smiles": "CCOc1cc(CNCc2cc(OC)cc(OC)c2)ccc1OC", "activity change, negative = cytotoxicity": "inactive: -7.94%"},
      {"smiles": "Cc1ccccc1S(=O)(=O)N1[C@@H](c2ccc(Br)cc2)C(C(=O)O)=CC[C@H]1c1ccc(Cl)cc1", "activity change, negative = cytotoxicity": "inactive: -15%"},
      {"smiles": "COc1cccc(-n2c(SCC(=O)NC3CCCCC3)nc3n[nH]c(C)c3c2=N)c1", "Potency": "inconclusive: 14.6 µM [falling, partial curve, poor fit]"},
      {"smiles": "CCC(C)Nc1c2c(nc3c(-c4ccccc4)c(C)nn13)CCC2", "note": "(stereo not drawn)", "activity change, negative = cytotoxicity": "inactive: -6.91%"},
      {"smiles": "O=C(NC1(Cc2ccccc2)CCN(Cc2ccc(-c3ccccc3)cc2)C1=O)c1ccccc1", "note": "(stereo not drawn)", "Potency": "inconclusive: 18.4 µM [falling, partial curve, poor fit]"},
      {"smiles": "CN1CCCC(n2nc(Cc3ccc(Cl)cc3)c3ccccc3c2=O)CC1", "note": "(stereo not drawn)", "Potency": "inconclusive: 20.6 µM [falling, partial curve, poor fit]"},
      {"smiles": "O=C(Nc1ccc(Br)cc1)c1cccc(S(=O)(=O)Nc2cnc3ccccc3c2)c1", "Potency": "inconclusive: 20.6 µM [falling, single point]"},
      {"smiles": "COc1ccc(-c2c([C@H]3[C@@H]4C=CCC[C@@]4(C)C(=O)N3Cc3ccccc3)ccc3ccccc23)cc1OC", "Potency": "inconclusive: 29.1 µM [falling, partial curve, poor fit]"},
      {"smiles": "O=C(C[C@H]1C/C=C\\CC[C@H](Cc2ccc(F)cc2)C(=O)O[C@H](c2ccccc2)CNC1=O)N[C@H](CO)Cc1ccccc1", "Potency": "inconclusive: 23.1 µM [falling, partial curve, poor fit]"},
      {"smiles": "Cc1ccc(NC(=O)CN(C)S(=O)(=O)c2ccc3nc(C)sc3c2)c(C)c1", "activity change, negative = cytotoxicity": "inactive: -1.35%"},
      {"smiles": "CN1CCC2(CC1)Nc1nc(SCc3ccc(Cl)cc3)nn1C1=C2CN(C)CC1", "Potency": "inconclusive: 16.4 µM [falling, partial curve, poor fit]"},
      {"smiles": "COc1ccc(-c2nn(C)c(=O)c3ccccc23)cc1NC(=O)COc1ccc(C)cc1", "Potency": "inconclusive: 32.6 µM [falling, single point]"},
      {"smiles": "COc1ccc(-c2nc3sc(CCNC(=O)c4cc(Cl)ccc4OC)c(C)n3n2)cc1", "Potency": "inconclusive: 16.4 µM [falling, partial curve, poor fit]"},
      {"smiles": "CC(C)COC(=O)c1ccc2c(c1O)C(=O)c1ccccc1C2=O", "Potency": "inconclusive: 18.4 µM [falling, partial curve]"},
      {"smiles": "CC(C)(C)CC(C)(C)NC(=O)CSCC(=O)Nc1ccc2ccccc2c1", "Potency": "inconclusive: 29.1 µM [falling, single point]"},
      {"smiles": "CCOC(=O)c1c(NC(=O)c2ccc(S(=O)(=O)N(CCOC)CCOC)cc2)sc2c1CC(C)(C)NC2(C)C", "activity change, negative = cytotoxicity": "inactive: -8.31%"}
    ]}
  ]
}
